## Primary screen of a compound library

Each number is a percent effect as filed. How 0% and 100% were set is not recorded. Most values in the screen are low, and negative values occur. Compounds were drawn at random from those tested, without regard to their results. Two or more numbers in one place are separate tests of the same structure; such repeats can differ widely.

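Cell assay of Leishmania donovani living inside macrophages; the read-out is not stated. Concentration: 30 µM. Higher reads as stronger inhibition (inferred: compounds with an IC50 in retests scored well above the rest). Size under these conditions: about 69,000 compounds, about 1,000 of them at 50% or above in at least one test.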

SMILES | effect
O=C(CCSc1ccccc1)NS(=O)(=O)c1ccc2c(c1)OCCO2 | -1.637
[H][C@@]12CN(c3ncc(C)cn3)C[C@@]1([H])N(C)C(=O)CO2 | 9.986
CSCc1noc(CN2CCCCC2CCc2ccc(O)cc2)n1 (centres unmarked) | 20.67
CCCN1CCC(c2nc3ccc(-c4ccncc4)cn3n2)CC1.O=C(O)C(F)(F)F.O=C(O)C(F)(F)F | 22.97
CCS(=O)(=O)Nc1cnn(Cc2cccc(C)c2)c1 | 49.24
O=C(C(c1ccccc1)S(=O)(=O)c1ccccn1)N1CCCCC1 (centres unmarked) | 8.017
COCCN(C)C[C@@H]1CN(C(=O)NC2CCCCC2)C[C@@H]1CO | 39.25
NC(=O)N1Cc2nccn2CC(Cn2ncccc2=O)C1 (centres unmarked) | 20.19
Cc1cccnc1[C@H](C)Nc1nc(-c2cccnc2)nc2c1CNC2 | 6.359
CCN(C(c1cccnc1)c1ccc(F)cc1F)S(C)(=O)=O (centres unmarked) | 16.46
[H][C@@]12C[C@H](NC(=O)COC)CN1[C@H](CCC(=O)NC1CC1)CNC2=O | -94.77
COC[C@]1(O)CCN(C(=O)c2ccc(CN(C)C)o2)CC1(C)C | 12.53
COCCCNC(=O)Nc1ccc(OCc2noc(C3CC3)n2)cc1 | 11.65
CCn1c(C)nnc1SCCNC(=O)c1cnc(C(C)(C)C)nc1O | -14.93
[H][C@@]12CCCCCN(C(=O)CC)[C@@]1([H])[C@H](c1cccc(F)c1)CN2C | 19.57
CS(=O)(=O)CCC(=O)Nc1cnn(-c2ccccc2Cl)c1 | 13.09
Cc1c(C(=O)N2CCC(c3nc(C)n4ccsc34)CC2)cnn1C | -2.508 & 4.547
O=C(NCc1cccnc1)C1=NOC2(CCCN(CCO)C2)C1 (centres unmarked) | 14.62
CC(=O)NCCCNCc1cc(F)ccc1Br | 2.719
O=C(Cc1ccc2c(c1)OCCO2)N1CCCC(n2ccnc2)C1 (centres unmarked) | 20.9
CCOc1ccc(Cl)c(C(=O)NCCc2ncc[nH]2)n1 | 13.76
Cc1cc(-n2nc(C3CC3)nc2-c2csnn2)ccn1 | 9.629
CC(C)(C)OC(=O)N[C@H]1CCN(c2cncc(Br)c2)C1 | 7.491
CN(C)CC(=O)N1CCC2(CC1)CN(Cc1cccnc1)C(=O)CO2 | 1.158
COc1cccc2c1ccn2CCNC(=O)CC(C)C | 2.11
Cc1n[nH]c(C)c1CCc1n[nH]c(=O)n1Cc1cccs1 | -17.28
N#Cc1ccc(N2CCCN(C(=O)CC3CCCO3)CC2)cc1 (centres unmarked) | 16.76
Cc1nc(C2(NCC(=O)NCc3cccs3)CCCCC2)no1 | 28.71
Cc1ccc(C(C(=O)NCc2n[nH]c(N)n2)N(C)C)cc1 (centres unmarked) | 27.3
CCOc1ncnc2c1CCN(C(=O)c1cnccn1)CC2 | 17.56
Clc1cnccc1N1CCC(OC2CCOCC2)CC1 | -3.354
Cc1ccc(C2(CN3CCCC3)CCNCC2)nc1 | 29.66
c1ccc(COc2ccccc2CNC2CCc3ncnn3C2)cc1 (centres unmarked) | 20.96
CC(=O)N1CCC(c2noc(C3CCC(=O)N3)n2)CC1 (centres unmarked) | 0
CC(=O)N[C@@H]1CN(c2nc(C(N)=O)cs2)C[C@H]1c1ccc(C)o1 | 19.38
Oc1cccc(CNCc2ccc(-n3cncn3)nc2)c1 | -4.819
COCCN(C)CCN1CC2(CCN(C3CCCOC3)CC2)OC1=O (centres unmarked) | 20.94
CC(c1ccccc1)N(C)C(=O)Cn1cc(NC(=O)C(C)(C)C)cn1 (centres unmarked) | 3.259
Cc1cnc(CN(C)C2CCN(Cc3nnc(C4CC4)o3)C2)o1 (centres unmarked) | 14.71
CS(=O)(=O)N1CC2(CCN(C3CCCCC3)C2)Cc2ccccc21 (centres unmarked) | 5.39
CO[C@H]1CCN(C(=O)c2ccc3oc(C)cc3c2)C[C@@]12CCCO2 | 5.901 & -6.792
Cc1ccc(-n2ccnc2)c(C(=O)NCCCN(C)C)c1 | 39.36
CC(C)c1nc(CCN(C)c2nccc(N3CCCC(O)C3)n2)no1 (centres unmarked) | 22.63
O=C(NCc1c[nH]c(=O)[nH]c1=O)C1CCOc2ccccc2C1 (centres unmarked) | -11.51
O=C(N1CCCC1)N1Cc2nccn2CC(Cn2ncccc2=O)C1 (centres unmarked) | 15.65
Cc1ccn(CCC(=O)N2CCCC2c2nnc(-c3scnc3C)o2)n1 (centres unmarked) | -5.337
O=C(O)C(F)(F)F.[H][C@@]12CN(CCc3ccccc3)C[C@H](C(=O)N3CCCO3)[C@]1([H])CCO2 | 22.49
CS(=O)(=O)CCN1CCCC1c1noc(C2CC2)n1 (centres unmarked) | -15.31
Cc1nc(-c2ccsc2)ccc1C(=O)NCCC1CCCO1 (centres unmarked) | 2.051
CN(C)CCN1CCCC12CCN(Cc1nccn1C)CC2.O=C(O)C(F)(F)F.O=C(O)C(F)(F)F.O=C(O)C(F)(F)F | 52.43
CS(=O)(=O)Cc1nc(CN2CCC(C(F)(F)F)CC2)cs1 | 21.4
O=C(O)C(F)(F)F.[H][C@@]12CCN(S(=O)(=O)c3cccnc3)[C@]1([H])CC[C@@H](c1nc(C)no1)O2 | 5.68
O=C(c1n[nH]cc1Cl)N1CCOCC1 | 14.36
COCc1cn(C2CCN(C(=O)Cc3ccsc3)CC2)nn1 | 20.65
CC(C)(C)c1n[nH]c(C2CN(CCc3cccs3)CCO2)n1 (centres unmarked) | 0.6342
CN1CCN(c2ncnc3c2CCN(c2ncc(F)cn2)CC3)CC1.O=C(O)C(F)(F)F | 18.41
CN(C)c1cc(C2CCCN(S(=O)(=O)C3CCCC3)C2)ccn1 (centres unmarked) | 11.93
Cn1cc(CN2CCc3ncn(C)c3C2COCc2ccccc2)cn1 (centres unmarked) | -5.103
O=C(C1CCOC1)N1CCN(CC(F)(F)F)c2ccccc21 (centres unmarked) | 25.18
O=S(=O)(c1c(N2CCCCC2)ccc2nonc12)N1CCCCC1 | -1.649
CCC(CNC(=O)c1ccccn1)N1CCc2ccccc2C1 (centres unmarked) | 26.1
O=C(c1cc(Cl)c2c(c1)OCCO2)N1CCCC(n2cncn2)C1 (centres unmarked) | 14.22
CC1=NOC(C(=O)N(C)CCCn2nc(C)cc2C)C1 (centres unmarked) | 16.17
CCCNCc1ccc(-c2ccnc3[nH]ccc23)cc1 | 17.34
Cc1nc2cc(=O)[nH]n2c(C)c1CC(=O)Nc1cnn(C(C)(C)C)c1 | 9.223
[H][C@]12CCN(Cc3ccco3)[C@@]1([H])CC[C@H](COCc1cccc(C)n1)O2 | 27.52
CCOCCN1CCC=C(C2c3nc[nH]c3CCN2C(C)=O)C1 (centres unmarked) | 9.351
[H][C@@]12CN(Cc3ccc(C)s3)C[C@]1([H])C(=O)N(CC1CCN(C)CC1)C2 | 14.22
Cc1ccc(CNS(=O)(=O)CC2=NC(=O)n3cccc3C2=O)cc1 | 26.46
Cc1noc(C)c1CN1CC2(CCN(C(=O)c3cccn3C)C2)CC1=O (centres unmarked) | 23.94
Clc1ccc(OCCCN2CCOC(Cn3cncn3)C2)cc1 (centres unmarked) | 4.638
Cc1nc(NC(=O)c2c(-n3cnnn3)sc3c2CCC3)sc1C | 5.322
[H][C@]12CNC[C@@]1(C(=O)NCCC1(O)CCN(C)CC1)CN(C1CCCC1)C2 | -10.78
O=c1[nH]c(C2CCOC2)nc2cc(F)c(F)cc12 (centres unmarked) | 18.06
CC(OCC1CC1)C(=O)N1CCCN(c2ncccc2C#N)CC1 (centres unmarked) | -5.087

The values are deposited in ChEMBL (CHEMBL3988442, “University of Dundee, Small-Polar-MMV Screening Library” (2021)).